Assay results taken from the supplement of paper PMC10849652.
The other results are listed elsewhere or left out.

Protein sequences, listed by entry. Tags and fused reporters are not part of them. Lines headed by an entry give the natural chain unless they say otherwise; changes in a name come on top.
UniProt P61962: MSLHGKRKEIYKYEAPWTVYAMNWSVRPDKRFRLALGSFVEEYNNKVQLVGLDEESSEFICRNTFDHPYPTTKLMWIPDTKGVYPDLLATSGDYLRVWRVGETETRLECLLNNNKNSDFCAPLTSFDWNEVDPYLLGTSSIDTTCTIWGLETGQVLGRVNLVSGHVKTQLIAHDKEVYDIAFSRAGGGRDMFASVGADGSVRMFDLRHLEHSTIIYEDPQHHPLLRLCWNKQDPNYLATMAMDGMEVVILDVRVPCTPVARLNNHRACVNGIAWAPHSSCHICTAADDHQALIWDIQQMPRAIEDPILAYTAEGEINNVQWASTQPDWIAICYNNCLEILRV
UniProt O00273: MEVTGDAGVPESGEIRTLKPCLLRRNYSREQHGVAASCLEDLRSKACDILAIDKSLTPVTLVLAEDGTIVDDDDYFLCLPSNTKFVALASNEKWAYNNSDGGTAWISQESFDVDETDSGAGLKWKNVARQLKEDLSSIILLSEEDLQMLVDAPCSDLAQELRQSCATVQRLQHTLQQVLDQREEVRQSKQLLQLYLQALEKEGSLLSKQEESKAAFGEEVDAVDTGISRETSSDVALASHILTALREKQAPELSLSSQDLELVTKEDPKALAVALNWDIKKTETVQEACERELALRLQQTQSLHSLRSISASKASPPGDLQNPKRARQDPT
UniProt Q8TCE6, whole entry, looked up: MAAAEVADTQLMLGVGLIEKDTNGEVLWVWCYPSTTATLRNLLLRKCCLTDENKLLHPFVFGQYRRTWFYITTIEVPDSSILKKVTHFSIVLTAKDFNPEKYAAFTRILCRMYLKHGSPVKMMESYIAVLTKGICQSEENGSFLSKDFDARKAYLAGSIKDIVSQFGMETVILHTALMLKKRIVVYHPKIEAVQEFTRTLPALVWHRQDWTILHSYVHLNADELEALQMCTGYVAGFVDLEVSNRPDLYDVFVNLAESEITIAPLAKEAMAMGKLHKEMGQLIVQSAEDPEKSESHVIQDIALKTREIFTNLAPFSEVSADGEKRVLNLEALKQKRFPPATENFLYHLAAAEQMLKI
UniProt Q13838, whole entry, looked up: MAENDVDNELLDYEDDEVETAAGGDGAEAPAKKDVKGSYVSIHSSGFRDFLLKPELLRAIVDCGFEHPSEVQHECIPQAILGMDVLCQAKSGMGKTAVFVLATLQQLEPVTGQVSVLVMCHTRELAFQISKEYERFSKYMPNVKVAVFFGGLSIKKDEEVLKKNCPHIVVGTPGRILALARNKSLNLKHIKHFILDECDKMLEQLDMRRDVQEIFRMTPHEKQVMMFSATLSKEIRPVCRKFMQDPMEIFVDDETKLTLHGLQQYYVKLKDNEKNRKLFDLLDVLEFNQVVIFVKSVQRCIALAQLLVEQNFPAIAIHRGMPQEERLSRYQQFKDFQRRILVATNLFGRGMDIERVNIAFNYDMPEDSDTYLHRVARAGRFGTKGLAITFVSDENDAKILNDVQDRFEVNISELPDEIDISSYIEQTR
UniProt Q66K64, whole entry, looked up: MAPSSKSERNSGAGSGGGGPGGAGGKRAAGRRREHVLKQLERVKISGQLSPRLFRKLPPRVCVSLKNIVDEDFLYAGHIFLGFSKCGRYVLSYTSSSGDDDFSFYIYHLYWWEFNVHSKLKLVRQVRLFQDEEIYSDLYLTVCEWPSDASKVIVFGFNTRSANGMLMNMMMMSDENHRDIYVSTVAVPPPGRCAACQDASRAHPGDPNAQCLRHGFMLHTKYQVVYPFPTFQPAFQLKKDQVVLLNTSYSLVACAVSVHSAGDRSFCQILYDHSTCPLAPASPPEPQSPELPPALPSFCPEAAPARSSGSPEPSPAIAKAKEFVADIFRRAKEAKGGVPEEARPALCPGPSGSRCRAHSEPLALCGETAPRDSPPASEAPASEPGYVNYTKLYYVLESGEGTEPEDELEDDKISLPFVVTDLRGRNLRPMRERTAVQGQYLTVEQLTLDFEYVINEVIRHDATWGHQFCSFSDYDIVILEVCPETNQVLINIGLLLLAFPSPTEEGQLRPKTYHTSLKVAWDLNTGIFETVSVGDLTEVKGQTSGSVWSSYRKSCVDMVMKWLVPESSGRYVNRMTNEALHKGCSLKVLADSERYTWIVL
UniProt Q13206, whole entry, looked up: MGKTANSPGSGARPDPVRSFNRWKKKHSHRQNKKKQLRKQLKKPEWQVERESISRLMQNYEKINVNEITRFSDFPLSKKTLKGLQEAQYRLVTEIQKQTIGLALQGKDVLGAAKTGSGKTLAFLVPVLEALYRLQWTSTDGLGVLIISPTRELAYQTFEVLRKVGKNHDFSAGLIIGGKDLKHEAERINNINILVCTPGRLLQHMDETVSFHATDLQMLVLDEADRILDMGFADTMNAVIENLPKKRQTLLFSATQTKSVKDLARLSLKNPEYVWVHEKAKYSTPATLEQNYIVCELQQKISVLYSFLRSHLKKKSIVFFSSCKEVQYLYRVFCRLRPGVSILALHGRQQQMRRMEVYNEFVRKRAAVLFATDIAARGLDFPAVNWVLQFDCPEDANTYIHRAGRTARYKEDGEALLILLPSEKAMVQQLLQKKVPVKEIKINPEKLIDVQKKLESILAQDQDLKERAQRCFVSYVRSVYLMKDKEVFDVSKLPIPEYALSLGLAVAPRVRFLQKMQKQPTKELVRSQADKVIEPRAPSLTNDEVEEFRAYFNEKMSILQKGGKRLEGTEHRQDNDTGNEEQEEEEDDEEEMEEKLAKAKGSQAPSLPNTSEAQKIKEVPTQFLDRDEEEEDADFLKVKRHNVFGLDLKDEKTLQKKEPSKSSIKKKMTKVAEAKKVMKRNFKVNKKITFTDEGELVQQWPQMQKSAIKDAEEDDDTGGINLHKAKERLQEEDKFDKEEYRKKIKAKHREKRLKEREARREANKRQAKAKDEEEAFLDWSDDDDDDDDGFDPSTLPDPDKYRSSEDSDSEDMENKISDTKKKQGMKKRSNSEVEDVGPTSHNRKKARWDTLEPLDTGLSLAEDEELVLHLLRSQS
UniProt Q13561, whole entry, looked up: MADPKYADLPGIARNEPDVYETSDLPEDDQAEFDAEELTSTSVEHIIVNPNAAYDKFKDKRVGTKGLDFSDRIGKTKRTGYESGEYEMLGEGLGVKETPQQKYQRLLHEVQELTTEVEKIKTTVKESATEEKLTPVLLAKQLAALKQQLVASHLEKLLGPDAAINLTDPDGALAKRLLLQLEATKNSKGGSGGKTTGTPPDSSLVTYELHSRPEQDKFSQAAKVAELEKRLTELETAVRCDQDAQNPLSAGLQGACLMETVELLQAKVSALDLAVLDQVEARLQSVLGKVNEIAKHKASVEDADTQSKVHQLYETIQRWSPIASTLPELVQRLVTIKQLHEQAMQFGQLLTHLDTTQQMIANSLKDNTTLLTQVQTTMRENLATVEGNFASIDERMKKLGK
UniProt Q8TDD1, whole entry, looked up: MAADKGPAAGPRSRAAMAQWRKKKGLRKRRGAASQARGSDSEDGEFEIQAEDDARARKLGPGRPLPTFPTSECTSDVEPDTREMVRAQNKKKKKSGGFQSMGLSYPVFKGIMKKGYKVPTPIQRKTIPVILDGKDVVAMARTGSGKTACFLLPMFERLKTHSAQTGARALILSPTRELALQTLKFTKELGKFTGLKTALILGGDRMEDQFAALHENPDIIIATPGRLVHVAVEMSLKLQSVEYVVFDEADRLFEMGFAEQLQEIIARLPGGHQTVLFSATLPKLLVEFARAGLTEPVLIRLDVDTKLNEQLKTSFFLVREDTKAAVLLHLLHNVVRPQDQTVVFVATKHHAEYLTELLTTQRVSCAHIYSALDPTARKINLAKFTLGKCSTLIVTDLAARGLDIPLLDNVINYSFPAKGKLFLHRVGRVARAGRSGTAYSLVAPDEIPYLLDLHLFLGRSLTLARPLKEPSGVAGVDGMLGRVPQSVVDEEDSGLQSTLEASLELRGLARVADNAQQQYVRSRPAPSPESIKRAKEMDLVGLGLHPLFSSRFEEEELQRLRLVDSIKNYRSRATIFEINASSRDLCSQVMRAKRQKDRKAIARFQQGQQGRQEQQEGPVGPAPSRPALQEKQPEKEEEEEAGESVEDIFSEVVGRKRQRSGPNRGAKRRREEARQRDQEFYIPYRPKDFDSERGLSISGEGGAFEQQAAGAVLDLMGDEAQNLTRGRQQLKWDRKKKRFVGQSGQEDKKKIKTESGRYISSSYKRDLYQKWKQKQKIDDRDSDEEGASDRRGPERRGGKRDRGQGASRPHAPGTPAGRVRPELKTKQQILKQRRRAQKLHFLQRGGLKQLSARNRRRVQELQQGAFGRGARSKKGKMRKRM
UniProt Q6PI48: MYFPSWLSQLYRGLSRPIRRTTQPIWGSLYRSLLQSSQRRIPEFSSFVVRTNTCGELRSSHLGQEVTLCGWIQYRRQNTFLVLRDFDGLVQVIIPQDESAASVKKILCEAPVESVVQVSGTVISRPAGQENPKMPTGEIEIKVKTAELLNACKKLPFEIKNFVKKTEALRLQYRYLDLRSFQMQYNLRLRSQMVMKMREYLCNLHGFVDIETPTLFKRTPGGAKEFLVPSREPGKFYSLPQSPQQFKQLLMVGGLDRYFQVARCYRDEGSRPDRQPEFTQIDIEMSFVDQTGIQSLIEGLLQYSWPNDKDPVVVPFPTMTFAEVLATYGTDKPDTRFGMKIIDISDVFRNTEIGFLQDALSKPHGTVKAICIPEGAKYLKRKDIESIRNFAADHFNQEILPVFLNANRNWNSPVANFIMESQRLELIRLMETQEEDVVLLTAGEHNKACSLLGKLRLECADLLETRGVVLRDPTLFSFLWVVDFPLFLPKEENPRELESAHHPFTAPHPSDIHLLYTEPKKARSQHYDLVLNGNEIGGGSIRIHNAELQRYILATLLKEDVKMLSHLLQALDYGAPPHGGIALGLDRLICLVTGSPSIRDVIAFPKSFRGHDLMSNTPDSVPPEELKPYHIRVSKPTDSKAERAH
UniProt Q58WW2: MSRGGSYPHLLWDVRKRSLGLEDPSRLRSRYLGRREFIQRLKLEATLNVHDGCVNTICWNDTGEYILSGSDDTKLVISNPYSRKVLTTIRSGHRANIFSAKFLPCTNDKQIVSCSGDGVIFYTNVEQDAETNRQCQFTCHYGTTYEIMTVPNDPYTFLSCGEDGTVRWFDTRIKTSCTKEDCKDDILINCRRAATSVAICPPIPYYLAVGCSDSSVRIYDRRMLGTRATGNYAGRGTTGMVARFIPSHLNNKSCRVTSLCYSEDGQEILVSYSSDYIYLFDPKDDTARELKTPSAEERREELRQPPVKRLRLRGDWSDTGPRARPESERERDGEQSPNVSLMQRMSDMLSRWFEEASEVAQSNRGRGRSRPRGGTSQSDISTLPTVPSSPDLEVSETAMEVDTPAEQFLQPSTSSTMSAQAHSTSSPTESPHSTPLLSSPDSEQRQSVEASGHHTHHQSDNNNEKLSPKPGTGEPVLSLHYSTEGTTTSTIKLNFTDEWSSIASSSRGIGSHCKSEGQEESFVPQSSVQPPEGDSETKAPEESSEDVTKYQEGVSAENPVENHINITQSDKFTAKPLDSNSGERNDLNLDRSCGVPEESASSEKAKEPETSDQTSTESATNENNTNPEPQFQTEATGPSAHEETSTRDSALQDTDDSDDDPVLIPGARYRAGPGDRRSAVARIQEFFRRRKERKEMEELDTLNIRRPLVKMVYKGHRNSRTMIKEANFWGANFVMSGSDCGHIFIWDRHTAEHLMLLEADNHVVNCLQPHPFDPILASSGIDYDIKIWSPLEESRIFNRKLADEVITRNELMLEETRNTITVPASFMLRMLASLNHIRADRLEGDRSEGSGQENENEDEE
UniProt Q9H0S4: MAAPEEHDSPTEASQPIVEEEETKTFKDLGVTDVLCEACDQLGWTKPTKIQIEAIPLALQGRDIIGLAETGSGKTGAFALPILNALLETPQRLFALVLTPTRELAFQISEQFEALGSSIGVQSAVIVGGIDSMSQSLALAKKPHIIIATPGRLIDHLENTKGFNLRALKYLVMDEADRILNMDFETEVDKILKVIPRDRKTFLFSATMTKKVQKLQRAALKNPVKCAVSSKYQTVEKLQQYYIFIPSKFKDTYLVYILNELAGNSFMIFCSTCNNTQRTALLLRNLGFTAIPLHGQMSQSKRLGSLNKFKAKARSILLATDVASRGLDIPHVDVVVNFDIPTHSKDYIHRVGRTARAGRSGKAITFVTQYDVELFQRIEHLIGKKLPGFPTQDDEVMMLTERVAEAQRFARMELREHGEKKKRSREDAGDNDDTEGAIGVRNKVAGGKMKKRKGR

What was measured:
Assay in all cases: log2 fold change, soluble protein after heating vs DMSO (PISA); higher = thermal stabilisation; K562 lysate, 10 uM; active = over 0.2 and 3.5 SD of the protein, either way, in both replicates (recomputed)
alvocidib = compound: CN1CC[C@H](c2c(O)cc(O)c3c(=O)cc(-c4ccccc4Cl)oc23)[C@H](O)C1 [alvocidib]
How it was run: (§1)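 K562 pellets were dounce-homogenised in PBS pH 7.4 containing 1 mM MgCl2, and the crude extract, at 1 mg/mL protein, was exposed to 10 μM compound for 30 min. Aliquots were heated for 3 min across 48°C-58°C, pooled, brought to 0.5% NP-40 at 4°C and spun at 21,000xg for 90 min, with the supernatant taken as soluble protein. TMTpro 16plex LC-MS/MS with equalised channel sums quantified that protein. Values are log-two fold changes in thermal stability relative to solvent controls, taken from duplicates.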

Tubastatin A = compound: CN1CCc2c(c3ccccc3n2Cc2ccc(C(=O)NO)cc2)C1 [Tubastatin A]
How it was run: as §1

[1] = compound: CNC(=O)C1=CC=CC=C1NC2=NC(=NC=C2Cl)NC3=C(C=C(C=C3)N4CCOCC4)OC
How it was run: as §1

defactinib = compound: CNC(=O)c1ccc(Nc2ncc(C(F)(F)F)c(NCc3nccnc3N(C)S(C)(=O)=O)n2)cc1 [defactinib]
How it was run: as §1

[2] = compound: CNc1nc(-c2ccc3c(N)n[nH]c3c2)cc(N2C[C@@H](C(=O)NC3CCCCC3)CC[C@H]2C)n1
How it was run: as §1

encorafenib = compound: COC(=O)N[C@@H](C)CNc1nccc(-c2cn(C(C)C)nc2-c2cc(Cl)cc(NS(C)(=O)=O)c2F)n1 [encorafenib]
How it was run: as §1

[3] = compound: COC(=O)[C@H](CCSC)NC(=O)C1=C(C=C(C=C1)NC[C@H](CS)N)C2=CC=CC=C2
How it was run: as §1

alisertib = compound: COc1cc(Nc2ncc3c(n2)-c2ccc(Cl)cc2C(c2c(F)cccc2OC)=NC3)ccc1C(=O)O [alisertib]
How it was run: as §1

[4] = compound: COc1cc2nc(-c3cc(F)ccc3O)nc(N[C@@H]3CNC[C@H]3C(C)(C)O)c2cc1OC
How it was run: as §1

gefitinib = compound: COc1cc2ncnc(Nc3ccc(F)c(Cl)c3)c2cc1OCCCN1CCOCC1 [gefitinib]
How it was run: as §1

lapatinib = compound: CS(=O)(=O)CCNCc1ccc(-c2ccc3ncnc(Nc4ccc(OCc5cccc(F)c5)c(Cl)c4)c3c2)o1 [lapatinib]
How it was run: as §1

pictilisib = compound: CS(=O)(=O)N1CCN(Cc2cc3nc(-c4cccc5[nH]ncc45)nc(N4CCOCC4)c3s2)CC1 [pictilisib]
How it was run: as §1

crizotinib = compound: C[C@@H](Oc1cc(-c2cnn(C3CCNCC3)c2)cnc1N)c1c(Cl)ccc(F)c1Cl [crizotinib]
How it was run: as §1

[5] = compound: C[C@H](C1=CC=C(C=C1)C(=O)NC2=C3C=CNC3=NC=C2)N
How it was run: as §1

duvelisib = compound: C[C@H](Nc1ncnc2nc[nH]c12)c1cc2cccc(Cl)c2c(=O)n1-c1ccccc1 [duvelisib]
How it was run: as §1

gandotinib = compound: Cc1cc(Nc2cc(CN3CCOCC3)c3nc(C)c(Cc4ccc(Cl)cc4F)n3n2)n[nH]1 [gandotinib]
How it was run: as §1

tozasertib = compound: Cc1cc(Nc2cc(N3CCN(C)CC3)nc(Sc3ccc(NC(=O)C4CC4)cc3)n2)n[nH]1 [tozasertib]
How it was run: as §1

doramapimod = compound: Cc1ccc(-n2nc(C(C)(C)C)cc2NC(=O)Nc2ccc(OCCN3CCOCC3)c3ccccc23)cc1 [doramapimod]
How it was run: as §1

bafetinib = compound: Cc1ccc(NC(=O)c2ccc(CN3CC[C@H](N(C)C)C3)c(C(F)(F)F)c2)cc1Nc1nccc(-c2cncnc2)n1 [bafetinib]
How it was run: as §1

[6] = compound: Cc1cccc(CC(=O)N2CCc3c2ccc(-c2cn(C)c4ncnc(N)c24)c3F)n1
How it was run: as §1

Measured: log2 fold change

DCAF7 (UniProt P61962)
inactive: alvocidib 0.015 | Tubastatin A -0.054 | [1] 0.037 | defactinib -0.011 | [2] 0.009 | encorafenib 0.015 | [3] 0.029 | alisertib 0.017 | [4] 0.01 | gefitinib -0.032 | lapatinib -0.035 | pictilisib -0.027 | crizotinib 0.008 | [5] 0.055 | duvelisib -0.017 | gandotinib -0.025 | tozasertib -0.022 | doramapimod -0.018 | bafetinib 0.014 | [6] -0.026

DFFA (UniProt O00273)
inactive: alvocidib 0.007 | Tubastatin A 0.016 | [1] 0.023 | defactinib 0.014 | [2] 0.018 | encorafenib -0.006 | [3] -0.009 | alisertib 0.01 | [4] -0.016 | gefitinib -0.053 | lapatinib 0.021 | pictilisib 0.007 | crizotinib 0.041 | [5] -0.001 | duvelisib -0.023 | gandotinib 0.046 | tozasertib -0.02 | doramapimod -0.015 | bafetinib 0.045 | [6] -0.029

DCP2 (UniProt Q8IU60)
inactive: alvocidib 0.023 | Tubastatin A -0.195 | [1] -0.013 | defactinib -0.045 | [2] 0 | encorafenib 0 | [3] -0.117 | alisertib -0.02 | [4] 0 | gefitinib 0.041 | lapatinib -0.027 | pictilisib 0.011 | crizotinib 0.038 | [5] 0.021 | duvelisib -0.011 | gandotinib -0.148 | tozasertib 0.018 | doramapimod 0.01 | bafetinib -0.062 | [6] -0.041

DENND6A (UniProt Q8IWF6)
inactive: alvocidib -0.009 | Tubastatin A -0.072 | [1] -0.006 | defactinib 0.007 | [2] 0.103 | encorafenib 0.007 | [3] -0.134 | alisertib 0.059 | [4] -0.024 | gefitinib 0.047 | lapatinib -0.077 | pictilisib -0.079 | crizotinib 0.028 | [5] -0.013 | duvelisib -0.022 | gandotinib -0.006 | tozasertib -0.038 | doramapimod 0.054 | bafetinib -0.099 | [6] 0.086

DAP3 (UniProt P51398)
inactive: alvocidib 0.026 | Tubastatin A -0.006 | [1] 0.004 | defactinib 0.013 | [2] 0.055 | encorafenib -0.017 | [3] 0.016 | alisertib -0.002 | [4] 0.01 | gefitinib -0.009 | lapatinib 0.028 | pictilisib -0.003 | crizotinib -0.063 | [5] 0.03 | duvelisib 0.01 | gandotinib -0.004 | tozasertib 0.013 | doramapimod -0.018 | bafetinib 0.029 | [6] 0.013

DAG1 (UniProt Q14118)
inactive: alvocidib -0.077 | Tubastatin A 0.058 | [1] 0.065 | defactinib 0.039 | [2] 0.036 | encorafenib -0.011 | [3] 0.017 | alisertib -0.001 | [4] -0.005 | gefitinib -0.01 | lapatinib -0.004 | pictilisib 0.018 | crizotinib -0.021 | [5] -0.092 | duvelisib 0.021 | gandotinib 0.048 | tozasertib 0.052 | doramapimod 0.013 | bafetinib -0.032 | [6] 0.029

Reprinted at random: 2 records from the list.
DAG1 (UniProt Q14118)
inactive: alvocidib -0.077 | Tubastatin A 0.058 | [1] 0.065 | defactinib 0.039 | [2] 0.036 | encorafenib -0.011 | [3] 0.017 | alisertib -0.001 | [4] -0.005 | gefitinib -0.01 | lapatinib -0.004 | pictilisib 0.018 | crizotinib -0.021 | [5] -0.092 | duvelisib 0.021 | gandotinib 0.048 | tozasertib 0.052 | doramapimod 0.013 | bafetinib -0.032 | [6] 0.029

DAP3 (UniProt P51398)
inactive: alvocidib 0.026 | Tubastatin A -0.006 | [1] 0.004 | defactinib 0.013 | [2] 0.055 | encorafenib -0.017 | [3] 0.016 | alisertib -0.002 | [4] 0.01 | gefitinib -0.009 | lapatinib 0.028 | pictilisib -0.003 | crizotinib -0.063 | [5] 0.03 | duvelisib 0.01 | gandotinib -0.004 | tozasertib 0.013 | doramapimod -0.018 | bafetinib 0.029 | [6] 0.013

Next records follow.

DENND10 (UniProt Q8TCE6)
inactive: alvocidib 0.045 | Tubastatin A 0.015 | [1] 0.004 | defactinib 0.012 | [2] -0.06 | encorafenib -0.067 | [3] 0.04 | alisertib 0.061 | [4] 0.008 | gefitinib 0.018 | lapatinib -0.016 | pictilisib -0.047 | crizotinib -0.075 | [5] -0.014 | duvelisib 0.051 | gandotinib -0.027 | tozasertib 0.027 | doramapimod 0.004 | bafetinib -0.003 | [6] -0.078

DDX39B isoform 2 (UniProt Q13838)
inactive: alvocidib -0.016 | Tubastatin A -0.001 | [1] 0.005 | defactinib -0.012 | [2] 0.001 | encorafenib -0.022 | [3] 0.028 | alisertib 0.008 | [4] -0.02 | gefitinib 0.007 | lapatinib 0.005 | pictilisib -0.007 | crizotinib -0.004 | [5] -0.038 | duvelisib 0.007 | gandotinib -0.009 | tozasertib 0.015 | doramapimod 0.002 | bafetinib -0.009 | [6] 0.015

DCAF15 (UniProt Q66K64)
inactive: alvocidib -0.036 | Tubastatin A 0.055 | [1] -0.007 | defactinib -0.037 | [2] 0.043 | encorafenib 0.005 | [3] 0.143 | alisertib 0.046 | [4] -0.029 | gefitinib -0.071 | lapatinib 0.02 | pictilisib -0.147 | crizotinib -0.096 | [5] -0.065 | duvelisib -0.068 | gandotinib 0.089 | tozasertib 0.112 | doramapimod -0.028 | bafetinib 0.084 | [6] -0.025

DDX10 (UniProt Q13206)
inactive: alvocidib -0.007 | Tubastatin A -0.074 | [1] -0.002 | defactinib 0.013 | [2] 0.045 | encorafenib 0.116 | [3] 0.052 | alisertib -0.041 | [4] 0.033 | gefitinib -0.037 | lapatinib -0.224 | pictilisib -0.114 | crizotinib 0.035 | [5] 0.037 | duvelisib 0.036 | gandotinib -0.063 | tozasertib -0.04 | doramapimod -0.157 | bafetinib 0.12 | [6] -0.026

DCTN2 isoform 3 (UniProt Q13561)
inactive: alvocidib -0.023 | Tubastatin A 0.036 | [1] -0.008 | defactinib 0.004 | [2] 0.014 | encorafenib -0.011 | [3] 0 | alisertib 0 | [4] 0.002 | gefitinib 0.004 | lapatinib -0.01 | pictilisib -0.048 | crizotinib 0.032 | [5] -0.073 | duvelisib 0.012 | gandotinib 0.043 | tozasertib 0.014 | doramapimod 0.004 | bafetinib -0.008 | [6] 0.006

DDX23 (UniProt Q9BUQ8)
inactive: alvocidib -0.002 | Tubastatin A -0.035 | [1] 0.006 | defactinib 0.004 | [2] -0.002 | encorafenib 0.012 | [3] -0.001 | alisertib 0.015 | [4] -0.016 | gefitinib -0.041 | lapatinib 0.004 | pictilisib -0.025 | crizotinib -0.021 | [5] 0.019 | duvelisib -0.014 | gandotinib -0.083 | tozasertib -0.013 | doramapimod -0.003 | bafetinib -0.086 | [6] 0.015

DDX54 isoform 2 (UniProt Q8TDD1)
inactive: alvocidib -0.037 | Tubastatin A -0.047 | [1] 0.017 | defactinib -0.05 | [2] -0.03 | encorafenib 0.084 | [3] 0.025 | alisertib 0.023 | [4] 0.006 | gefitinib -0.089 | lapatinib -0.03 | pictilisib 0.075 | crizotinib -0.057 | [5] -0.025 | duvelisib 0.025 | gandotinib 0.01 | tozasertib 0.035 | doramapimod 0.019 | bafetinib 0.11 | [6] 0.101

DARS2 (UniProt Q6PI48)
inactive: alvocidib 0.04 | Tubastatin A -0.086 | [1] 0.004 | defactinib 0.037 | [2] -0.018 | encorafenib 0.041 | [3] 0.051 | alisertib 0.011 | [4] -0.004 | gefitinib -0.021 | lapatinib -0.001 | pictilisib 0.028 | crizotinib -0.038 | [5] -0.021 | duvelisib 0.009 | gandotinib -0.036 | tozasertib 0.074 | doramapimod 0.031 | bafetinib -0.044 | [6] 0.014

DCAF6 isoform 3 (UniProt Q58WW2)
inactive: alvocidib -0.028 | Tubastatin A 0.015 | [1] -0.008 | defactinib 0.009 | [2] 0.051 | encorafenib 0.04 | [3] -0.021 | alisertib 0.016 | [4] -0.008 | gefitinib -0.032 | lapatinib 0.028 | pictilisib -0.022 | crizotinib 0.014 | [5] 0.058 | duvelisib 0.063 | gandotinib -0.045 | tozasertib -0.004 | doramapimod -0.005 | bafetinib -0.047 | [6] -0.031

DDX47 (UniProt Q9H0S4)
inactive: alvocidib 0 | Tubastatin A -0.023 | [1] 0.072 | defactinib 0.046 | [2] 0.051 | encorafenib 0.014 | [3] 0.032 | alisertib -0.005 | [4] -0.012 | gefitinib -0.015 | lapatinib -0.03 | pictilisib 0.001 | crizotinib -0.06 | [5] 0.011 | duvelisib -0.02 | gandotinib 0.006 | tozasertib 0.05 | doramapimod 0.048 | bafetinib -0.044 | [6] 0.14
